The source holds more than one record for some entries. This is not the full list of results. The source may hold further records. Values given together differ for a reason that is not stated; some may be repeats, others may stem from another dose, organism or construct than stated.
Target: D2LR (Homo sapiens, UniProt P14416)
Assay: Inhibition of forskolin-induced cAMP production (BRET CAMYEL biosensor); note: test concentration or dose not given here
Details: single experiments n = 1, 2, 3

Protein sequences, listed by entry. Tags and fused reporters are not part of them.
UniProt P14416, whole entry: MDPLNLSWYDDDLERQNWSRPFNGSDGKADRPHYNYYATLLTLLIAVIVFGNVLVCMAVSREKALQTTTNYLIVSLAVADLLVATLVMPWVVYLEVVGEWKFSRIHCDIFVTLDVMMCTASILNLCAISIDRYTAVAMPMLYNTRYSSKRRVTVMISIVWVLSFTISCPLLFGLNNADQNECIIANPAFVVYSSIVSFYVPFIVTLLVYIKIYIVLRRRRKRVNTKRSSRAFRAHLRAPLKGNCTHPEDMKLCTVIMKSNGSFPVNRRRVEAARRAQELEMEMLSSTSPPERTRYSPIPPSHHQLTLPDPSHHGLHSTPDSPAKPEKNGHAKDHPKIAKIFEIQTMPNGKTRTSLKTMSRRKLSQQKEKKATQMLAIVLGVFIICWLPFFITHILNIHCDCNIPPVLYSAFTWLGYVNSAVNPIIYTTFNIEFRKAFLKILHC

SMILES | Inhibition of cAMP production measured using a CAMYEL BRET biosensor, Net BRET (time 0.383333 mins) | Inhibition of cAMP production measured using a CAMYEL BRET biosensor, Net BRET (time 0.75 mins) | Inhibition of cAMP production measured using a CAMYEL BRET biosensor, Net BRET (time 1.11667 mins)
CN1CCN(c2cccc3[nH]c(=O)oc23)CC1 [Pardoprunox, pardoprunox] | 0.02263, 0.02384, 0.009659 |  | 
CCCN1CCC[C@@H](c2cccc(O)c2)C1 [S-3PPP, (S)-(-)-3-(3-hydroxyphenyl)-N-propylpiperidine] |  | 0.02173, 0.0472, 0.03133 | 0.02607, 0.06736, 0.04711

— publication PMC4770093, “The role of kinetic context in apparent biased agonism at GPCRs” (Nature Communications, 2016)
